Where “and” joins values, the source holds several entries; their conditions need not be identical. Equal entries are not always repeated. Inconclusive results, whose numbers are uncertain, are shown with a selection of clear calls. A potency beside an inconclusive call is a rough fit, not a confirmed value. The source holds several records for some structures; these can differ, active in one and inactive in another. Calls of active or inactive are those of the source. Rule for the calls: active = hit-call score of the fitted dose curve at least 0.9, where 1 is the maximum; inconclusive = response in the unintended direction; inactive = score below 0.9.
These molecules were tested against human Thyroid hormone Receptor beta (TRb), THRB (gene 7068) (UniProt P10828) (assay: ATG_hTRb_XSP2: Attagene TRANS-FACTORIAL Multi-Species (XSP2) HepG2 Assay for human Thyroid hormone Receptor beta (TRb) (AID 2283840);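 note: actives raise reporter mRNA so potency reflects agonist-like gain of signal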).
Outline: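 Transient transfection of human HepG2 with multi-species NR-Gal4/GAL4-UAS reporter constructs; 24 h compound treatment; RNA isolation, reverse transcription, PCR and HpaI digest; capillary electrophoresis of labeled fragments; activity fitted upward versus DMSO.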

Chains of the proteins cited; added tags and fusions are not shown. Lines headed by an entry give the natural chain unless they say otherwise; changes in a name come on top.
UniProt P10828: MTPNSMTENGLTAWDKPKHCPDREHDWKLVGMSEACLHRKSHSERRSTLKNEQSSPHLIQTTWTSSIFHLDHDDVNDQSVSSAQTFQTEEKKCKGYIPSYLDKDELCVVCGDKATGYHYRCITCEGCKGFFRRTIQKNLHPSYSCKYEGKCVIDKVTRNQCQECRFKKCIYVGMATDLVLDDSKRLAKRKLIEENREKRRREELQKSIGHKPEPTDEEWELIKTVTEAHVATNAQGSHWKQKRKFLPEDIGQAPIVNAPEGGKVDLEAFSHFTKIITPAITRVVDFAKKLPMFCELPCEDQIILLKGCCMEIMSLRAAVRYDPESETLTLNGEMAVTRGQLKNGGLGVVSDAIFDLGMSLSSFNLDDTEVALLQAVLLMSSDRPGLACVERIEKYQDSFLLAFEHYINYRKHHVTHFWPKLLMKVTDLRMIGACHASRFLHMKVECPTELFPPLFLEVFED

| SMILES | outcome | AC50 |
| --- | --- | --- |
| CCC(CC)Nc1c([N+](=O)[O-])cc(C)c(C)c1[N+](=O)[O-] | inactive |  |
| O=S(=O)(c1ccc(Cl)cc1)c1ccc(Cl)cc1 |  | active: 19.8 µM and inconclusive: 100 µM |
| COCCl |  | inconclusive: 34.8 µM |
| CC12CC1(C)C(=O)N(c1cc(Cl)cc(Cl)c1)C2=O (configuration not stated) |  | active: 63.2 µM |
| C[C@]12CC[C@H](O)CC1=CC[C@@H]1[C@@H]2CC[C@]2(C)C(=O)CC[C@@H]12 |  | inconclusive: 100 µM |
| COc1ccc(C(=CC(=O)N2CCOCC2)c2ccc(Cl)cc2)cc1OC | inactive |  |
| CCN(CC)C(=O)C(C)Oc1cccc2ccccc12 (configuration not stated) | inactive |  |
| COP(=S)(OC)Oc1ccc([N+](=O)[O-])cc1 | inactive |  |
| CCCOCC(=Nc1ccc(Cl)cc1C(F)(F)F)n1ccnc1 |  | inconclusive: 0.24 µM |
| C=C(C)CN(CC)c1c([N+](=O)[O-])cc(C(F)(F)F)cc1[N+](=O)[O-] | inactive |  |
| Nc1c(Cl)cc([N+](=O)[O-])cc1Cl |  | active: 27.6 µM and active: 82.2 µM |
| COP(=O)(OC)O/C(=C\Cl)c1cc(Cl)c(Cl)cc1Cl | inactive |  |
| CCC[CH2][Sn]([Cl])([CH2]CCC)[CH2]CCC |  | active: 0.649 µM |
| O=c1oc2ccccc2c(O)c1C(CC(O)c1ccc(-c2ccc(Br)cc2)cc1)c1ccccc1 (configuration not stated) | inactive |  |
| CC(C)(C)C(O)(CCc1ccc(Cl)cc1)Cn1cncn1 (configuration not stated) |  | inconclusive: 0.482 µM |
| Cc1c(COC(=O)[C@@H]2[C@H](/C=C(\Cl)C(F)(F)F)C2(C)C)cccc1-c1ccccc1 |  | inconclusive: 100 µM |
| CCCN(CCC)c1c([N+](=O)[O-])cc(C(F)(F)F)cc1[N+](=O)[O-] |  | inconclusive: 0.414 µM |

Looked up one by one from the list above (two):

| SMILES | outcome | AC50 |
| --- | --- | --- |
| COCCl |  | inconclusive: 34.8 µM |
| CCC(CC)Nc1c([N+](=O)[O-])cc(C)c(C)c1[N+](=O)[O-] | inactive |  |

Each molecule was assayed on Sodium/Iodide Symporter (NIS), SLC5A5 (gene 6528) (assay: CPHEA_Stoker_NIS_Inhibition_RAIU: CPHEA's Radioactive Iodide Uptake (RAIU) Assay for Sodium/Iodide Symporter (NIS) Inhibition, Stoker and Laws Labs (AID 2283841)).
Outline: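 hNIS-HEK293T-EPA cells incubated 2 h at room temperature with compound (0.001–100 uM, 0.5% DMSO) and 329 pM final 125I in HBSS/10 mM HEPES, pH 7.4. Intracellular 125I counted; normalised to DMSO maximal uptake, triplicate, three biological replicates.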

| SMILES | AC50 |
| --- | --- |
| Oc1ccc(Cl)cc1Cc1ccccc1 | active: 50 µM and active: 11.2 µM and active: 21.7 µM |
| CCCCCOC(=O)c1ccccc1C(=O)OCCCCC | inconclusive: 0.521 nM |
| ClC(Cl)=C(c1ccc(Cl)cc1)c1ccc(Cl)cc1 | inconclusive: 0.923 nM |
| CC(C)(O)C(=O)Nc1ccc([N+](=O)[O-])c(C(F)(F)F)c1 | inconclusive: 0.795 nM |
| CC(C)(C)C(O)(CCc1ccc(Cl)cc1)Cn1cncn1 (configuration not stated) | inconclusive: 0.314 nM |

— PubChem BioAssay (EPA / NIEHS)
